# Assay results from the supplement of paper PMC12819154, “High-throughput peptide-centric local stability assay extends protein–ligand identification to membrane proteins, tissues and bacteria” (Nature Structural & Molecular Biology, 2025).
# Amino acid sequences for entries named in this document (tags omitted). A change or cut given only in a name is not applied to a line headed by its entry.
# UniProt Q9BUI4: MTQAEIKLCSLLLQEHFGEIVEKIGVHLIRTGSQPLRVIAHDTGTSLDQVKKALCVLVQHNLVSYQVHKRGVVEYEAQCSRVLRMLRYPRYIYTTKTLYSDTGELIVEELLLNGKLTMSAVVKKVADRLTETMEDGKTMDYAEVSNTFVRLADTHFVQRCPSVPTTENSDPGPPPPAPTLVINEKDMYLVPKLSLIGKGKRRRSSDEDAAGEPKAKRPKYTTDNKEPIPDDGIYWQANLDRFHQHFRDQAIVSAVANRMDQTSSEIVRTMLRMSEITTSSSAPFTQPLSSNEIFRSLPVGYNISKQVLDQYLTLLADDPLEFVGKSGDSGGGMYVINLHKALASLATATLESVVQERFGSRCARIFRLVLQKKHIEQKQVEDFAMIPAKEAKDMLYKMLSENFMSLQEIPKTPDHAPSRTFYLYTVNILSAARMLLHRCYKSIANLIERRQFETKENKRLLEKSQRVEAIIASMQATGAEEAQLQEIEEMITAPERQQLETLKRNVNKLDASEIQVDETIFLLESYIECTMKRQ
# UniProt Q96TA2: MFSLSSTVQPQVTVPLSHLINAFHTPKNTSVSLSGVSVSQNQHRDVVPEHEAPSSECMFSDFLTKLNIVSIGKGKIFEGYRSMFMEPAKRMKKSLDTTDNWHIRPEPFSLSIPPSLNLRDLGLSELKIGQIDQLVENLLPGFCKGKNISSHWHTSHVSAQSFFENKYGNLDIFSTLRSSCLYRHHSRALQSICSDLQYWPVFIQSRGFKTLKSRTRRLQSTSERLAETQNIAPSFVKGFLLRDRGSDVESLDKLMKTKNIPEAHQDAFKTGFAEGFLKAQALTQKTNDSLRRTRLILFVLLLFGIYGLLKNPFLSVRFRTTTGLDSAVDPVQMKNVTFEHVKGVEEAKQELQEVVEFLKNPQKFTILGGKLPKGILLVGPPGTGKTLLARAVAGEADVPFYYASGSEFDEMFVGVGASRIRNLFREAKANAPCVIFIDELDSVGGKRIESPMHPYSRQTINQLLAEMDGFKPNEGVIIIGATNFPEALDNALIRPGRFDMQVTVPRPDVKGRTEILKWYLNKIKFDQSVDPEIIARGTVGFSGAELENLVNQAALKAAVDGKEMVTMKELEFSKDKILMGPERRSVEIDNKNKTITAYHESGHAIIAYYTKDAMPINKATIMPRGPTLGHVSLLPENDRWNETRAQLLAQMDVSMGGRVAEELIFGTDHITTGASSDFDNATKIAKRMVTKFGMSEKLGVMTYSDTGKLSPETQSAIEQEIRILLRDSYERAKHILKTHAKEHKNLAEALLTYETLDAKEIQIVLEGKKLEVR
# UniProt Q9BRJ7: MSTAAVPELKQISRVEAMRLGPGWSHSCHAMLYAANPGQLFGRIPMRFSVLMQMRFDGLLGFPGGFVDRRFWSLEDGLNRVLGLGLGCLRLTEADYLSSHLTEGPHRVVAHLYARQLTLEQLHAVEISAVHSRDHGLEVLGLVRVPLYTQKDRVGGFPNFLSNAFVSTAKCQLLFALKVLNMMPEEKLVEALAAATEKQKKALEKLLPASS
# UniProt Q99988: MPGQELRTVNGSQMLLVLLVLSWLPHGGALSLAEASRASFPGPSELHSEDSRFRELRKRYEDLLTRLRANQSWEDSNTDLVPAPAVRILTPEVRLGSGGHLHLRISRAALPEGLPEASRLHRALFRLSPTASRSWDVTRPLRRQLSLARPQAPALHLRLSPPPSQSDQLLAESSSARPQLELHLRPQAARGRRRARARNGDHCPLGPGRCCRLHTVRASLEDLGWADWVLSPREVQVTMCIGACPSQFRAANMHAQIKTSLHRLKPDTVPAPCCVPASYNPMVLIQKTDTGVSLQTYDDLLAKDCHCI
# UniProt Q96SI9: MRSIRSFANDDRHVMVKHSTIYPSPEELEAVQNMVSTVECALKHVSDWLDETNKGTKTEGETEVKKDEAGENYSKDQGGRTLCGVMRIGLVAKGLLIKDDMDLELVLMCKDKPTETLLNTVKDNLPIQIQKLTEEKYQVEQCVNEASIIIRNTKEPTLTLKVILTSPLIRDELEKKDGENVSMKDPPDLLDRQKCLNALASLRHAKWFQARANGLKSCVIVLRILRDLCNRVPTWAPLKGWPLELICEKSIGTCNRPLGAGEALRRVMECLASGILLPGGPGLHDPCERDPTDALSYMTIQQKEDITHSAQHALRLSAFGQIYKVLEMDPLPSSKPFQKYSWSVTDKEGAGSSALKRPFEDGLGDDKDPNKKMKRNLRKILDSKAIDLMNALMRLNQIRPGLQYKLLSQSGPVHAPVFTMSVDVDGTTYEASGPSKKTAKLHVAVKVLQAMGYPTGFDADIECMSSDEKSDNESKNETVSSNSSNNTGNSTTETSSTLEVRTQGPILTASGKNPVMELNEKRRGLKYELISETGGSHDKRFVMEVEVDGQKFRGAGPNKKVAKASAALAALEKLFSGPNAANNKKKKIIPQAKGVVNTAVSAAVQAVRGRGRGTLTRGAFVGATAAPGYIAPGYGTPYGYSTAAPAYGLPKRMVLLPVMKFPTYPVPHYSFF
# UniProt Q9BT49: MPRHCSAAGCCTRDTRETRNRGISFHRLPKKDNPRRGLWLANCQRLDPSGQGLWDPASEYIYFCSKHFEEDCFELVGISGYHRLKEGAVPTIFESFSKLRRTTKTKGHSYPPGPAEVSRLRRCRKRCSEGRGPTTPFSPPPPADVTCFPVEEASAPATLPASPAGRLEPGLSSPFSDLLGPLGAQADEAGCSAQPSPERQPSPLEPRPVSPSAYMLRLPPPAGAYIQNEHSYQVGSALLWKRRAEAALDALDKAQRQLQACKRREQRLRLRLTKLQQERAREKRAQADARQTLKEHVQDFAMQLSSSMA
# UniProt Q9BRV8: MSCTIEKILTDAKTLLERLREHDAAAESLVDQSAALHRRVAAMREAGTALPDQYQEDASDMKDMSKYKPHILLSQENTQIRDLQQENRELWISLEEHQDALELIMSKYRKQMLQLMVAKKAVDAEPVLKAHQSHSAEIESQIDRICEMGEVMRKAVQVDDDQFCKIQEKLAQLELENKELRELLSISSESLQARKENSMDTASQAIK
# UniProt Q99707: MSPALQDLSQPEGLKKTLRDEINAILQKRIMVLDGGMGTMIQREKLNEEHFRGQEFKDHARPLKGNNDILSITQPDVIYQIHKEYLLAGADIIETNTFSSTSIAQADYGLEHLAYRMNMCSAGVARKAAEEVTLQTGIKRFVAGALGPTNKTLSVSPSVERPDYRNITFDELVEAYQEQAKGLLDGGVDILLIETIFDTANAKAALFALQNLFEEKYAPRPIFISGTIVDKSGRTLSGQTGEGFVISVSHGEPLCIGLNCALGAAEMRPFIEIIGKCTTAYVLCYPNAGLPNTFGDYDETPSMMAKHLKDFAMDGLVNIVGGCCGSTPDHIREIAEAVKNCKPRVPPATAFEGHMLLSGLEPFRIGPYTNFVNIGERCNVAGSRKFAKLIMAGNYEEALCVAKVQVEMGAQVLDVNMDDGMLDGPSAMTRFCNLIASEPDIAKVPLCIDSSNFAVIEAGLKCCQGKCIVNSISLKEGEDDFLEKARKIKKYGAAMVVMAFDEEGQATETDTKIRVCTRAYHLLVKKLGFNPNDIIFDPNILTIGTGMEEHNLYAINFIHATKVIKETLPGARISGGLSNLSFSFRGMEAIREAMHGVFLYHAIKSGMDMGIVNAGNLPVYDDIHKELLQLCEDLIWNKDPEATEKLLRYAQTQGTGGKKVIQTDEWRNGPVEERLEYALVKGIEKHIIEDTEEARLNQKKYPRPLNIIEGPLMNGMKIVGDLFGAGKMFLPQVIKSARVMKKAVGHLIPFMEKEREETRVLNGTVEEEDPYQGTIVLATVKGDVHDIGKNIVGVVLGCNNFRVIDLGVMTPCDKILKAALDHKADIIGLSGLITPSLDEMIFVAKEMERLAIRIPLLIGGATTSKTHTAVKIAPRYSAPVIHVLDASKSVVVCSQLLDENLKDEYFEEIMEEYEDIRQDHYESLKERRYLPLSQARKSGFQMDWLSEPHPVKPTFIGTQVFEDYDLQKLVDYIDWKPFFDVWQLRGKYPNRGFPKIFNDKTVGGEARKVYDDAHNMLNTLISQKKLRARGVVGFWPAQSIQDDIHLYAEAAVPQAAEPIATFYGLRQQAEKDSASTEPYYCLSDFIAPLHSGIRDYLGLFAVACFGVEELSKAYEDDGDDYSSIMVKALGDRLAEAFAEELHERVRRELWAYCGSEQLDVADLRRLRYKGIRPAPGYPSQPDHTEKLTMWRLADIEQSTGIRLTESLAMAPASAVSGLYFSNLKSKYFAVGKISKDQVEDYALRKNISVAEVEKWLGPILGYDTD
# UniProt Q9BRT6: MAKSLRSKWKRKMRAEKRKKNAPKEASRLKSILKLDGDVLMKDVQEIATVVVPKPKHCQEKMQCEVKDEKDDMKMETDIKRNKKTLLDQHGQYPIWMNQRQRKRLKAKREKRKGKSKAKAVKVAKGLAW
# Some of the results follow. Most values lie at the level of the controls, where differences are scatter.
# Compound: Cc1nc(Nc2ncc(C(=O)Nc3c(C)cccc3Cl)s2)cc(N2CCN(CCO)CC2)n1 [dasatinib]
# Assay: log2 fold change of tryptic peptide abundance, ligand vs vehicle (limited proteolysis) (log2 ratio); higher = more trypsin-susceptible (destabilized)
# Conditions: ligand concentration: 5 uM; sample: K562 cleared lysate
row,Target,log2 fold change
1,"POLR3C (peptide sequence: LTETMEDGK, peptide start residue: 129) (UniProt Q9BUI4)",0.488
2,"PNKP (peptide sequence: RVAIDNTNPDAASR, peptide start residue: 418) (UniProt Q96T60)",0.431
3,"YME1L1 (peptide sequence: FDMQVTVPRPDVK, peptide start residue: 498) (UniProt Q96TA2)",0.486
4,"NUDT16L1 (peptide sequence: VLNMMPEEK, peptide start residue: 179) (UniProt Q9BRJ7)",-0.404
5,"GDF15 (peptide sequence: ASFPGPSELHSEDSR, peptide start residue: 38) (UniProt Q99988)",0.295
6,"STRBP (peptide sequence: AIDLMNALMR, peptide start residue: 385) (UniProt Q96SI9)",-0.359
7,"THAP7 (peptide sequence: LKEGAVPTIFESFSK, peptide start residue: 84) (UniProt Q9BT49)",0.148
8,"SIKE1 (peptide sequence: ENSMDTASQAIK, peptide start residue: 196) (UniProt Q9BRV8)",0.479
9,"MTR (peptide sequence: VIKETLPGAR, peptide start residue: 563) (UniProt Q99707)",0.398
10,"LLPH (peptide sequence: TLLDQHGQYPIWMNQR, peptide start residue: 85) (UniProt Q9BRT6)",0.0466
